According to doi:10.1101/2021.05.03.442391:
These are yes or no findings as the source states them, for the method shown. Binding seen in cells or lysates may run through a third protein. Some binding calls cover weakened binding; strength is not graded here.

Protein sequences, listed by entry. Tags and fused reporters are not part of them.
UniProt Q8CG47: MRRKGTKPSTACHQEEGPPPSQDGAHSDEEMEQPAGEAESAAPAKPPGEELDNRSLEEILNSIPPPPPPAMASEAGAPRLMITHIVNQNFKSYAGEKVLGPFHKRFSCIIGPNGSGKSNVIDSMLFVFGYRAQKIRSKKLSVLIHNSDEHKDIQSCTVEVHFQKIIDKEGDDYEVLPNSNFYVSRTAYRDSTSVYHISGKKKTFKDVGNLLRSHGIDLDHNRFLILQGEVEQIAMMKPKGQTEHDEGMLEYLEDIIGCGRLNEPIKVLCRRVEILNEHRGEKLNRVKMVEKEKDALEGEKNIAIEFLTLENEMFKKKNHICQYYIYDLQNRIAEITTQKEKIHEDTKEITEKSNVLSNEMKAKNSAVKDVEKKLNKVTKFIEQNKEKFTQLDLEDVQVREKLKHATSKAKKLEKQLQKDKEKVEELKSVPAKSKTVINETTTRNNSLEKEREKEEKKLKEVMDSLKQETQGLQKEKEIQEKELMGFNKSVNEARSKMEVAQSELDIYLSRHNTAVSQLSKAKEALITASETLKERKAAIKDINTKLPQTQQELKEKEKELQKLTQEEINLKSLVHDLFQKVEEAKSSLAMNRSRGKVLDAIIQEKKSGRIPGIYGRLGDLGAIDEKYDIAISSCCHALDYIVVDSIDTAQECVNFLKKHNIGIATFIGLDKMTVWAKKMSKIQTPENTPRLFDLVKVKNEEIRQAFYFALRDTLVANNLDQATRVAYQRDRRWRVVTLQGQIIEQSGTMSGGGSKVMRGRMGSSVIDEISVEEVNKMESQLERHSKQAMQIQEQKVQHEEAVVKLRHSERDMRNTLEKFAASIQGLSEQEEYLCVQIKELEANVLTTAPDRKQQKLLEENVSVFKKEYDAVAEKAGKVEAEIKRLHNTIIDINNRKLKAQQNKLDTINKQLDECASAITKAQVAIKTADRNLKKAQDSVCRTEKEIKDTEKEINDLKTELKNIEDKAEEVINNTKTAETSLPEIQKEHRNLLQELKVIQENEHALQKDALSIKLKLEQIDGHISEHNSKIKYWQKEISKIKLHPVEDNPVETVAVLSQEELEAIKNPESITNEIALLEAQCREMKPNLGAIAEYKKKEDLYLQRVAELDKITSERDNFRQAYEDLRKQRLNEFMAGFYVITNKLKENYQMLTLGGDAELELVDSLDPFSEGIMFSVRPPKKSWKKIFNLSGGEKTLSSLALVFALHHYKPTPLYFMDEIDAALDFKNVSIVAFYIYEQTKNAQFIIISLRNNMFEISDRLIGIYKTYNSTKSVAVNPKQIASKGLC

Biological target: T1, retinoblastoma-associated protein (RB) (mouse (endogenous in J1 ESCs)) (UniProt P13405)
T1 sequence: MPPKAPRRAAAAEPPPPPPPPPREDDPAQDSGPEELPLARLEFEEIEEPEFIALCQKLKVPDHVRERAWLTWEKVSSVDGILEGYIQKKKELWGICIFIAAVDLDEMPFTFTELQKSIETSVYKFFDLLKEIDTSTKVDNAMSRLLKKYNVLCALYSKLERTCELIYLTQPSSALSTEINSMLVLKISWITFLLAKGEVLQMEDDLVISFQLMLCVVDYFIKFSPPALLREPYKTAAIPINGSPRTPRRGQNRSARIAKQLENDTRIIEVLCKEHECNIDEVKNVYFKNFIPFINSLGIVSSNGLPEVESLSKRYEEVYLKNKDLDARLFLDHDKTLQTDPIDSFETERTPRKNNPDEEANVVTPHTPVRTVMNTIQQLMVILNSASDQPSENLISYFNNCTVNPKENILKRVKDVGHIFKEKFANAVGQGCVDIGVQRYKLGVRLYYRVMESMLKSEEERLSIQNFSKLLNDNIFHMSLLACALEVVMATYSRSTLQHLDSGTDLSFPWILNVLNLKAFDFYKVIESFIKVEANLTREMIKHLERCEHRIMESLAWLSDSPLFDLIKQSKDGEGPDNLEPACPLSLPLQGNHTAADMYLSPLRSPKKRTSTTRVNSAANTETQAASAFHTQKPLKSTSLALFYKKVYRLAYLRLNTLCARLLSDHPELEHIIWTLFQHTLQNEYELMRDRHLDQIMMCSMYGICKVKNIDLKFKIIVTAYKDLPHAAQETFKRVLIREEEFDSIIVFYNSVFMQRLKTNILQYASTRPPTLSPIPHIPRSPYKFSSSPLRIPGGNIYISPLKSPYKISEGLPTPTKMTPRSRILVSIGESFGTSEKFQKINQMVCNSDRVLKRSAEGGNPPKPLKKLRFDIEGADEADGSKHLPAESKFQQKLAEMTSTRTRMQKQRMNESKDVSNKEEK
Assay: co-IP

binding: binds
Substance: SMC4 (from UniProt Q8CG47 1-1286)
